Laboratory results: PMC7024302, “Ultrashort Cationic Lipopeptides–Effect of N-Terminal Amino Acid and Fatty Acid Type on Antimicrobial Activity and Hemolysis” (Molecules, 2020)
Residues, ends and D or L forms follow the SMILES beside them. *: point of attachment. Myristoyl = CCCCCCCCCCCCCC(=O)*; Acm = CC(=O)NC*

How the values were obtained:
E. faecium ATCC 700221 = format: cell-based, Enterococcus faecium; conditions: SI = HC50/MIC
Excerpt: (§1) The Acinetobacter baumannii ATCC BAA-1605, Candida albicans ATCC 10231, Enterococcus faecium ATCC 700221, Klebsiella aerogenes ATCC 13048 (previously known as Enterobacter aerogenes), Klebsiella pneumoniae ATCC 700603, Pseudomonas aeruginosa ATCC 9027, Staphylococcus aureus ATCC 25923 and MRSA ATCC 33591, were acquired from the American Type Culture Collection (ATCC). Before running the tests, beads with cryo-protected microorganisms were transferred into fresh MHB (BioMaxima, Lublin, Poland) for bacteria or RPMI-1640 for fungi and incubated for 24 h at 37 °C. Then, the culture was seeded on the Mueller-Hinton agar (MHA) plates (BioMaxima, Lublin, Poland) for bacteria or Sabouraud dextrose agar (SDA) plates (BioMaxima, Lublin, Poland) for fungi and incubated as just mentioned. Cell densities for all assays were adjusted spectrophotometrically (Multiskan™ GO Microplate Spectrophotometer, Thermo Fisher Scientific, Vantaa, Finland) at 600 nm for bacteria and at 530 nm for fungi.
(§2) The MICs were determined by broth microdilution method according to the Clinical and Laboratory Standard Institute guidelines. For this purpose initial inoculums of bacteria (5 × 10^5 CFU/mL) in MHB (BioMaxima, Lublin, Poland) and fungi (2 × 10^3 CFU/mL) in RPMI-1640 with 2% D-glucose (Merck, Darmstadt, Germany) prepared with MOPS (pH 7.0 ± 0.1 at 25 °C; Merck, Darmstadt, Germany) were exposed to the ranging concentration of lipopeptides (0.5–256 µg/mL) and incubated at 37 °C for 18 h and 24 h respectively. The experiments were conducted on 96-well microtiter polystyrene plates (Kartell, Italy). The MIC was taken as the lowest peptide concentration at which a noticeable growth of microorganisms was inhibited. All experiments were conducted in triplicate.

K. aerogenes ATCC 13048 = format: cell-based, Klebsiella aerogenes; conditions: SI = HC50/MIC
Excerpt: as §1, §2

| SMILES | SI (E1) (E. faecium ATCC 700221) | SI (E2) (K. aerogenes ATCC 13048) |
| --- | --- | --- |
| CCCCCCCCCCCC(=O)N[C@@H](CCSC)C(=O)N[C@@H](CCCNC(=N)N)C(=O)N[C@@H](CCCNC(=N)N)C(N)=O [compound 49, C12-MRR-NH2] (HELM PEPTIDE1{[CCCCCCCCCCCC(=O)[*:2]].M.R.R.[am]}$$$$V2.0) | 12.91 | 0.81 |
| CCCCCCCCCCCCCC(=O)N[C@@H](CCCNC(=N)N)C(=O)N[C@@H](CCCNC(=N)N)C(N)=O [compound 4, C14-RR-NH2, reference compound] (HELM PEPTIDE1{[CCCCCCCCCCCCCC(=O)[*:2]].R.R.[am]}$$$$V2.0) | 8.55 | 0.27 |
| CCCCCCCCCCCCCC(=O)N[C@@H](CCCNC(=N)N)C(=O)N[C@@H](CCCNC(=N)N)C(=O)N[C@@H](CCCNC(=N)N)C(N)=O [compound 82, C14-RRR-NH2] (HELM PEPTIDE1{[CCCCCCCCCCCCCC(=O)[*:2]].R.R.R.[am]}$$$$V2.0) | 26.42 | 1.65 |
| CCCCCCCCCCCCCC(=O)N[C@@H](CSCNC(C)=O)C(=O)N[C@@H](CCCNC(=N)N)C(=O)N[C@@H](CCCNC(=N)N)C(N)=O [compound 14, C14-C(Acm)RR-NH2] (Myristoyl-Cys(Acm)-Arg-Arg-NH2) | 4.97 | 0.16 |
| CCCCCCCCCCCC(=O)N[C@@H](Cc1ccccc1)C(=O)N[C@@H](CCCNC(=N)N)C(=O)N[C@@H](CCCNC(=N)N)C(N)=O [compound 25, C12-FRR-NH2] (HELM PEPTIDE1{[CCCCCCCCCCCC(=O)[*:2]].F.R.R.[am]}$$$$V2.0) | 11.40 | 0.36 |
| CCCCCCCCCCCCCC(=O)N[C@H](C(=O)N[C@@H](CCCNC(=N)N)C(=O)N[C@@H](CCCNC(=N)N)C(N)=O)[C@@H](C)O [compound 90, C14-TRR-NH2] (HELM PEPTIDE1{[CCCCCCCCCCCCCC(=O)[*:2]].T.R.R.[am]}$$$$V2.0) | 5.43 | 0.34 |
| CCCCCCCCCCCCCC(=O)N[C@H](C(=O)N[C@@H](CCCNC(=N)N)C(=O)N[C@@H](CCCNC(=N)N)C(N)=O)C(C)C [compound 94, C14-VRR-NH2] (HELM PEPTIDE1{[CCCCCCCCCCCCCC(=O)[*:2]].V.R.R.[am]}$$$$V2.0) | 1.92 | 0.24 |
| CCCCCCCCCCCC(=O)N[C@@H](CCCC)C(=O)N[C@@H](CCCNC(=N)N)C(=O)N[C@@H](CCCNC(=N)N)C(N)=O [compound 65, C12-NleRR-NH2] (HELM PEPTIDE1{[CCCCCCCCCCCC(=O)[*:2]].[Nle].R.R.[am]}$$$$V2.0) | > 32 | > 1 |
| CCCCCCCCCCCCCC(=O)N[C@@H](CO)C(=O)N[C@@H](CCCNC(=N)N)C(=O)N[C@@H](CCCNC(=N)N)C(N)=O [compound 86, C14-SRR-NH2] (HELM PEPTIDE1{[CCCCCCCCCCCCCC(=O)[*:2]].S.R.R.[am]}$$$$V2.0) | 2.60 | 0.32 |
| CCCCCCCCCCCCCCCCCC(=O)N[C@@H](CCCNC(=N)N)C(=O)N[C@@H](CCCNC(=N)N)C(N)=O [compound 6, C18-RR-NH2, reference compound] (HELM PEPTIDE1{[CCCCCCCCCCCCCCCCCC(=O)[*:2]].R.R.[am]}$$$$V2.0) | 3.15 | 1.57 |
| CCCCCCCCCCCCCC(=O)N[C@@H](CCCCN)C(=O)N[C@@H](CCCNC(=N)N)C(=O)N[C@@H](CCCNC(=N)N)C(N)=O [compound 42, C14-KRR-NH2] (HELM PEPTIDE1{[CCCCCCCCCCCCCC(=O)[*:2]].K.R.R.[am]}$$$$V2.0) | 26.51 | 3.31 |
| CCCCCCCCCCCC(=O)N[C@@H](CCC)C(=O)N[C@@H](CCCNC(=N)N)C(=O)N[C@@H](CCCNC(=N)N)C(N)=O [compound 69, C12-NvaRR-NH2] (HELM PEPTIDE1{[CCCCCCCCCCCC(=O)[*:2]].[Nva].R.R.[am]}$$$$V2.0) | 12.98 | 0.81 |
| CCCCCCCCCCCCCC(=O)N[C@@H](Cc1ccccc1)C(=O)N[C@@H](CCCNC(=N)N)C(=O)N[C@@H](CCCNC(=N)N)C(N)=O [compound 26, C14-FRR-NH2] (HELM PEPTIDE1{[CCCCCCCCCCCCCC(=O)[*:2]].F.R.R.[am]}$$$$V2.0) | 2.44 | 0.61 |
| CCCCCCCCCCCCCC(=O)N1CCC[C@H]1C(=O)N[C@@H](CCCNC(=N)N)C(=O)N[C@@H](CCCNC(=N)N)C(N)=O [compound 74, C14-PRR-NH2] | 6.68 | 0.21 |
| CCCCCCCCCCCCCC(=O)N[C@H](C(=O)N[C@@H](CCCNC(=N)N)C(=O)N[C@@H](CCCNC(=N)N)C(N)=O)[C@@H](C)CC [compound 38, C14-IRR-NH2] (HELM PEPTIDE1{[CCCCCCCCCCCCCC(=O)[*:2]].I.R.R.[am]}$$$$V2.0) | 19.73 | 1.23 |
| CCCCCCCCCCCC(=O)N[C@@H](Cc1ccc(O)cc1)C(=O)N[C@@H](CCCNC(=N)N)C(=O)N[C@@H](CCCNC(=N)N)C(N)=O [compound 101, C12-YRR-NH2] (HELM PEPTIDE1{[CCCCCCCCCCCC(=O)[*:2]].Y.R.R.[am]}$$$$V2.0) | 7.69 | 0.96 |
| CCCCCCCCCCCCCC(=O)N[C@@H](Cc1c[nH]c2ccccc12)C(=O)N[C@@H](CCCNC(=N)N)C(=O)N[C@@H](CCCNC(=N)N)C(N)=O [compound 98, C14-WRR-NH2] (HELM PEPTIDE1{[CCCCCCCCCCCCCC(=O)[*:2]].W.R.R.[am]}$$$$V2.0) | 4.61 | 1.15 |
| CCCCCCCCCCCCCC(=O)N[C@@H](Cc1c[nH]cn1)C(=O)N[C@@H](CCCNC(=N)N)C(=O)N[C@@H](CCCNC(=N)N)C(N)=O [compound 34, C14-HRR-NH2] (HELM PEPTIDE1{[CCCCCCCCCCCCCC(=O)[*:2]].H.R.R.[am]}$$$$V2.0) | 6.29 | 0.20 |
| CCCCCCCCCCCCCC(=O)N[C@@H](CCCC)C(=O)N[C@@H](CCCNC(=N)N)C(=O)N[C@@H](CCCNC(=N)N)C(N)=O [compound 66, C14-NleRR-NH2] (HELM PEPTIDE1{[CCCCCCCCCCCCCC(=O)[*:2]].[Nle].R.R.[am]}$$$$V2.0) | 4.69 | 1.17 |
| CCCCCCCCCCCCCC(=O)N[C@@H](CC(N)=O)C(=O)N[C@@H](CCCNC(=N)N)C(=O)N[C@@H](CCCNC(=N)N)C(N)=O [compound 62, C14-NRR-NH2] (HELM PEPTIDE1{[CCCCCCCCCCCCCC(=O)[*:2]].N.R.R.[am]}$$$$V2.0) | 8.05 | 0.50 |
| CCCCCCCCCCCC(=O)N[C@H](C(=O)N[C@@H](CCCNC(=N)N)C(=O)N[C@@H](CCCNC(=N)N)C(N)=O)C(C)C [compound 93, C12-VRR-NH2] (HELM PEPTIDE1{[CCCCCCCCCCCC(=O)[*:2]].V.R.R.[am]}$$$$V2.0) | 15.39 | 0.96 |
| CCCCCCCCCCCCCC(=O)N[C@@H](Cc1ccc(O)cc1)C(=O)N[C@@H](CCCNC(=N)N)C(=O)N[C@@H](CCCNC(=N)N)C(N)=O [compound 102, C14-YRR-NH2] (HELM PEPTIDE1{[CCCCCCCCCCCCCC(=O)[*:2]].Y.R.R.[am]}$$$$V2.0) | 11.63 | 0.73 |
| CCCCCCCCCCCCCC(=O)N[C@@H](CCC)C(=O)N[C@@H](CCCNC(=N)N)C(=O)N[C@@H](CCCNC(=N)N)C(N)=O [compound 70, C14-NvaRR-NH2] (HELM PEPTIDE1{[CCCCCCCCCCCCCC(=O)[*:2]].[Nva].R.R.[am]}$$$$V2.0) | 10.51 | 0.33 |
| CCCCCCCCCCCC(=O)N[C@@H](CC(C)C)C(=O)N[C@@H](CCCNC(=N)N)C(=O)N[C@@H](CCCNC(=N)N)C(N)=O [compound 45, C12-LRR-NH2] (HELM PEPTIDE1{[CCCCCCCCCCCC(=O)[*:2]].L.R.R.[am]}$$$$V2.0) | 7.05 | 0.44 |
| CCCCCCCCCCCCCC(=O)N[C@@H](CCS(C)(=O)=O)C(=O)N[C@@H](CCCNC(=N)N)C(=O)N[C@@H](CCCNC(=N)N)C(N)=O [compound 58, C14-M(O2)RR-NH2] (HELM PEPTIDE1{[CCCCCCCCCCCCCC(=O)[*:2]].[CS(=O)(=O)CC[C@H](N[*:1])C(=O)[*:2]].R.R.[am]}$$$$V2.0) | 8.76 | 0.27 |
